Reference: patent US20160320368A1, “METHOD AND APPARATUS FOR PREDICTING EFFECTIVE DOSE OR SENSITIVITY OF 5-HYDROXY-1H-IMIDAZOLE-4-CARBOXAMIDE, METHOD FOR DETERMINING AMOUNT OF XANTHOSINE MONOPHOSPHATE, AND TREATMENT AGENT AND METHOD FOR TREATING MYELODYSPLASTIC SYNDROME” (FUJIFILM Corporation, priority 2014, published 2016)
At least one compound was matched to its structure with a doubt left.

How the values were obtained:
[1] = tested on: human myeloid leukemia cells (SKM-1) subcutaneous tumor; assay: Antitumor effects in SKM-1 subcutaneous tumor nude mice; format: in vivo, female nude mice (BALB/cAJcl-nu/nu); conditions: oral, 2 days dosing+four days washout, five courses
[2] = tested on: human myeloid leukemia cells (SKM-1) subcutaneous tumor; assay: PK/PD analysis (PK parameters vs inhibition rate of tumor volume); format: in vivo, mice; conditions: groups in which the Time above IC50 is 40% or more
XMP in whole blood = XMP in whole blood (Example 8); format: cell-based, human; conditions: with an increasing concentration of Compound A
Description: (§1) A ¾ hydrate of Compound A was used as a test compound.
(§2) 450 μL of the blood collected from healthy individuals by heparinized blood collection was added to each tube, and 50 μL of a PBS solution of the test compound (0 μg/mL, 1 μg/mL, 10 μg/mL, or 100 μg/mL in terms of Compound A) for each concentration was added to each tube. The reaction mixture was stirred in an incubator at 37° C. for 8 hours.
(§3) 400 μL of methanol was added to 100 μL of the blood sample obtained in (1). After stirring, 400 μL of chloroform was added, followed by further stirring. 120 μL of ultrapure water was added thereto, followed by stirring and then centrifugation at 4° C. and 10000×g for 15 min. 400 μL of the aqueous phase was recovered and added to an ultrafiltration tube, followed by centrifugation at 12° C. and 9200×g for 2 hours. The filtrate was dried under reduced pressure at 40° C. for 2 hours by using a centrifugal evaporator. […]
(§4) The samples obtained in (2) were returned to room temperature and 40 μL of ultrapure water was added to each sample. […] After storage at 4° C., XMP, GMP and GTP in the samples were determined in the LC-MS/MS determination instrument and LC conditions described in Example 3 (3), and MS/MS conditions shown in Table 15.
(§5) Amounts of XMP, GMP and GTP (%) were calculated assuming that the XMP, GMP and GTP values of a non-Compound A treated group (peak area value) are defined as 100%.

GMP in whole blood = GMP in whole blood (Example 8); format: cell-based, human; conditions: when the concentration of Compound A is increased
Description: as §1, §2, §3, §4, §5

GTP in whole blood = GTP in whole blood (Example 8); format: cell-based, human; conditions: when the concentration of Compound A is increased
Description: as §1, §2, §3, §4, §5

## NC(=O)c1nc[nH]c1O [Compound A, 5-Hydroxy-1H-imidazole-4-carboxamide]
[1]; Group 4: 240 mg/kg/day, 80 mg/kg/times, 3 times/day
  antitumor effects (tumor volume on day 39 post-transplantation): excellent antitumor effects
[1]; Group 5: 240 mg/kg/day, 40 mg/kg/times, 6 times/day
  antitumor effects (tumor volume on day 39 post-transplantation): excellent antitumor effects
[1]; Group 6: 120 mg/kg/day, 20 mg/kg/times, 6 times/day
  antitumor effects (tumor volume on day 39 post-transplantation): excellent antitumor effects
[1]; Group 7: 480 mg/kg/day, 160 mg/kg/times, 3 times/day
  antitumor effects (tumor volume on day 39 post-transplantation): excellent antitumor effects
[2]
  tumor volume: statistically significantly inhibited
XMP in whole blood
  amount of XMP in whole blood: decreased
GMP in whole blood
  amount of GMP in whole blood: no great change
GTP in whole blood
  amount of GTP in whole blood: no great change
